Source: PMC11924951
No constants are given. Whether binding was seen depends on the method and setting. Some entries that bind do so weakly or less than the wild type. For some of these results: Where a sequence is shown, tags or fusion partners need not be part of it.

By UniProt entry, the sequences of proteins in these tests, tags left out. Residues count along the entry.
UniProt P17181, residues 28-436: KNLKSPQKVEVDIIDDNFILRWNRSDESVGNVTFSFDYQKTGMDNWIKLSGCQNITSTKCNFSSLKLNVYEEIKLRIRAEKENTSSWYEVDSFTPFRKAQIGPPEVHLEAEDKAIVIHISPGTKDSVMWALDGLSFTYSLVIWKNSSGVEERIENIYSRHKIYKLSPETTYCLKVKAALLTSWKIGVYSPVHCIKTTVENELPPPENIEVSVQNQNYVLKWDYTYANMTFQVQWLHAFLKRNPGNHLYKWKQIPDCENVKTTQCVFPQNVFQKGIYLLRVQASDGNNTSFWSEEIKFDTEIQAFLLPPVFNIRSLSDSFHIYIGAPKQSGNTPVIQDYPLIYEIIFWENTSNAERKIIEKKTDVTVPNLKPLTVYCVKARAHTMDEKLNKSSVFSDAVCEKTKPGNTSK
UniProt P05000, residues 22-195: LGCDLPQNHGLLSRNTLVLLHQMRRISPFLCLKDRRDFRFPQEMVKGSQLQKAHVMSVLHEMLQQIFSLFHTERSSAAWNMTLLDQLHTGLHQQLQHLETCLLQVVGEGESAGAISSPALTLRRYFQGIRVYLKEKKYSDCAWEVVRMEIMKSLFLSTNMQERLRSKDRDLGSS

What was measured:
[1] = molecular target: His-tagged IFNAR1 (human) (UniProt P17181); test: BLI; His-tagged IFNAR1 (25 nM) or IFNAR2 (100 nM) loaded on Ni-NTA biosensors for 600 s; IFN-I in solution, association 60-120 s, dissociation 120 s; 0.02% Tween-20, 0.1% BSA in 1x PBS, pH 7.4; Octet R2; both purified
[2] = molecular target: T1, His-tagged IFNAR2 (human) (UniProt P48551); test: as above
T1 sequence: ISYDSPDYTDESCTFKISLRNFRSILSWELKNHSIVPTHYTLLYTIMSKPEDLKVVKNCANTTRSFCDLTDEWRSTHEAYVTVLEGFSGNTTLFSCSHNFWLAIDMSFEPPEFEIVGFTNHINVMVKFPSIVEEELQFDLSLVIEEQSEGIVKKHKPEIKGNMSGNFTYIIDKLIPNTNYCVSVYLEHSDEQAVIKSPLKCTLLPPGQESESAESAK

[3] = molecular target: His-tagged IFNAR1 (human) (UniProt P17181); test: BLI; blocking format: IFN-I preincubated 1 h at room temperature with rontalizumab (1:50), sifalimumab (1:50) or plasma (1:10) in assay buffer with 50% goat serum; His-tagged IFNAR1 or IFNAR2 loaded on Ni-NTA biosensors, blocked in 100% goat serum; association 120 s; both purified
[4] = molecular target: T1, His-tagged IFNAR2 (human); test: as above

Measured: binding

IFNω (from UniProt P05000 22-195) (ligand)
binds: all assays above
